{"source": "patent US20070037739A1", "about": "“Compounds useful in coating stents to prevent and treat stenosis and restenosis” (Medlogics Device Corporation, priority 2003, published 2007)", "key": {"[1]": {"experiment": "Balloon-induced intimal injury (restenosis)", "format": "in vivo", "conditions": "30-45 pmoles/kg/day iv, 14 d", "description": "Following balloon-induced […] intimal injury, rats were give daily intravenous saline or DAA-I at 15, 30 or 45 pmol/kg×14d."}, "[2]": {"test_system": "vascular smooth muscle cells", "conditions": "cited from earlier work"}, "cardiomyocytes": {"test_system": "cardiomyocytes", "conditions": "cited from earlier work"}, "[3]": {"conditions": "post myocardial infarction; cited from earlier work"}}, "note": "At least one peptide structure holds a part that was inferred or is arguable (an end, a ring closure or a residue). Peptide text beside a SMILES is read from it."}
{"smiles": "CC[C@H](C)[C@H](NC(=O)[C@H](Cc1ccc(O)cc1)NC(=O)[C@@H](NC(=O)[C@@H](N)CCCNC(=N)N)C(C)C)C(=O)N[C@@H](Cc1c[nH]cn1)C(=O)N1CCC[C@H]1C(=O)N[C@@H](Cc1ccccc1)C(=O)N[C@@H](Cc1c[nH]cn1)C(=O)N[C@@H](CC(C)C)C(=O)O", "note": "[DAA-I, Arg-Val-Tyr-IIe-His-pro-Phe-His-Leu] (H-RVYIHPFHL-OH)", "values": [{"measurement": "injury-induced lumen restenotic occlusion", "setting": "[1]", "result": "striking protection"}, {"measurement": "ANG-II stimulated MAP Kinase activity", "setting": "[2]", "result": "substantially reduced"}, {"measurement": "ANG-II stimulated MAP Kinase activity", "setting": "cardiomyocytes", "result": "substantially reduced"}, {"measurement": "expression of ICAM-1", "setting": "[3]", "result": "attenuates the expression"}, {"measurement": "release of myeloperoxidase (MPO)", "setting": "[3]", "result": "reduces release"}, {"measurement": "release of serum creatine kinase (CK)", "setting": "[3]", "result": "reduces release"}]}
